Measured values as given in patent EP1949908A1, “Combined use of derivatives of GLP-1 analogs and PPAR ligands” (NOVO NORDISK A/S, priority 2001, dated 2008).
At least one peptide structure holds a part that was inferred or is arguable (an end, a ring closure or a residue).

Test system: male ZDF rat
Assay: Four weeks treatment of overtly diabetic male ZDF rats: HbA1c and 24-hour glucose profile
Format: in vivo
Details: mean±SEM, n=10, propionic acid compound 1 mg/kg oral gavage once daily, GLP-1 derivative 50 µg/kg subcutaneously twice daily

In the case of `CCCCCCCCCCCCCCCC(=O)N[C@@H](CCC(=O)NCCCC[C@H](NC(=O)[C@H](C)NC(=O)[C@H](C)NC(=O)[C@H](CCC(N)=O)NC(=O)CNC(=O)[C@H](CCC(=O)O)NC(=O)[C@H](CC(C)C)NC(=O)[C@H](Cc1ccc(O)cc1)NC(=O)[C@H](CO)NC(=O)[C@H](CO)NC(=O)[C@@H](NC(=O)[C@H](CC(=O)O)NC(=O)[C@H](CO)NC(=O)[C@@H](NC(=O)[C@H](Cc1ccccc1)NC(=O)[C@@H](NC(=O)CNC(=O)[C@H](CCC(=O)O)NC(=O)[C@H](C)NC(=O)[C@@H](N)Cc1c[nH]cn1)[C@@H](C)O)[C@@H](C)O)C(C)C)C(=O)N[C@@H](CCC(=O)O)C(=O)N[C@@H](Cc1ccccc1)C(=O)N[C@H](C(=O)N[C@@H](C)C(=O)N[C@@H](Cc1c[nH]c2ccccc12)C(=O)N[C@@H](CC(C)C)C(=O)N[C@H](C(=O)N[C@@H](CCCNC(=N)N)C(=O)NCC(=O)N[C@@H](CCCNC(=N)N)C(=O)NCC(=O)O)C(C)C)[C@@H](C)CC)C(=O)O` [Arg^34, Lys^26(N^ε-(γ-Glu(N^α-hexadecanoyl)))-GLP-1(7-37)], the “Delta HbA1c” value (after four weeks treatment minus before treatment) was 0.28±0.19 % points and the Glucose24hAUC (total area under the glucose concentration curve during 24-hour period after four weeks treatment) was 508 ± 4 mM·h.
